PubChem BioAssay AID1259308, NCATS, 2017
This is one part, drawn at random, of about 59,000 deposited reagents. Of all reagents, about 1,510 (2.6%) were called active. 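Calls use total luciferase alone and ignore viability, so some active siRNAs may act by altering cell number.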 A number with no mark means an inactive call. The numbers tell different reagents against one gene apart. Further read-outs or replicates are left out here.

Purpose: 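Knock-downs that increase output of a recombinant reporter protein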 (primary screen)
System: human HEK293 embryonic kidney cells stably expressing firefly luciferase (HEK-CMV-Luc2-Hygro)
Reagents: single siRNA against human genes, 0.8 pmol siRNA per well
Duration: 72 h
Measured: 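Luciferase light (ONE-Glo) measured on one replicate plate set and viability (CellTiter-Glo) on the other, scaled to a negative control siRNA, with robust z-scores and luciferase per cell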
Reading the numbers: total luciferase, z-score: higher = more reporter protein produced
Call rule: 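Active when the median/MAD z-score for overall luciferase is greater than 3; a gene was taken forward for validation with new siRNAs if at least two of its three siRNAs passed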
Calls: active = raised luciferase; inactive = no rise

After knock-down of FBXO34 #1, the screen gave total luciferase, z-score -1.69.
For FBXO34 #2, the values are total luciferase, z-score 0.223.
After knock-down of FBXO34 #3, the screen gave total luciferase, z-score -0.4.
Silencing of ATAD3C #1 came out at: total luciferase, z-score 1.62.
After knock-down of ATAD3C #2, the screen gave total luciferase, z-score -0.0527.
With knock-down of ATAD3C #3 the results were total luciferase, z-score -1.67.
Against ATP5MJ #1, the values are total luciferase, z-score 2.33.
ATP5MJ #2 scored total luciferase, z-score -0.353.
For ATP5MJ #3, the values are total luciferase, z-score 0.313.
After knock-down of TBK1 #1, the screen gave total luciferase, z-score 1.02.
Against TBK1 #2, the entry reads total luciferase, z-score 0.249.
Knock-down of TBK1 #3 gave: total luciferase, z-score 0.79.
OAZ3 #1 showed total luciferase, z-score -0.379.
After knock-down of OAZ3 #2 the results were total luciferase, z-score 0.991.
OAZ3 #3 scored total luciferase, z-score 0.434.
With knock-down of CFHR2 #1, the record shows total luciferase, z-score -0.288.
With knock-down of CFHR2 #2 the results were total luciferase, z-score 0.397.
With knock-down of CFHR2 #3 the results were total luciferase, z-score -0.668.
Silencing of TMEFF2 #1 gave: total luciferase, z-score 0.465.
For TMEFF2 #2, the values are total luciferase, z-score -0.465.
TMEFF2 #3 scored total luciferase, z-score -1.13.
Against LDOC1 #1, the values are total luciferase, z-score -0.571.
After knock-down of LDOC1 #2, the screen gave total luciferase, z-score -1.83.
Against LDOC1 #3, the values are total luciferase, z-score 0.951.
EVX2 #1 showed total luciferase, z-score -0.214.
EVX2 #2 gave total luciferase, z-score -2.65.
EVX2 #3 gave total luciferase, z-score 0.298.
After knock-down of ELOA2 #1, the record shows total luciferase, z-score 0.842.
For ELOA2 #2 the deposit lists total luciferase, z-score -0.794.
Silencing of ELOA2 #3 gave: total luciferase, z-score -0.798.
IL27RA #1 showed total luciferase, z-score -0.935.
Against IL27RA #2, the values are total luciferase, z-score -1.41.
Against IL27RA #3, the values are total luciferase, z-score -0.742.
SERPINA6 #1 gave total luciferase, z-score -1.38.
Against SERPINA6 #2 the deposit lists total luciferase, z-score 2.58.
Knock-down of SERPINA6 #3 gave: total luciferase, z-score 1.4.
Against ASCC2 #1 the deposit lists total luciferase, z-score -2.09.
After knock-down of ASCC2 #2, the record shows total luciferase, z-score -0.297.
After knock-down of ASCC2 #3, the record shows total luciferase, z-score -1.31.
With knock-down of XCR1 #1, the record shows total luciferase, z-score 0.581.
After knock-down of XCR1 #2, the screen gave total luciferase, z-score -1.68.
For XCR1 #3, the values are total luciferase, z-score 1.77.
